# Measurements as given in patent publication US9365502B2, “Neuroactive substituted cyclopenta[b]phenanthrenes as modulators for GABA type-A receptors” (priority 2013, dated 2016).
# Experiments:
# Tadpole = Tadpole loss of righting (LRR) and loss of swimming (LSR) reflexes; type: in vivo; details: Hill coefficient; for Tadpole LRR nHill: loss of righting reflex; for Tadpole LSR nHill: loss of swimming reflex
# Procedure: Table 3 discloses the anesthetic effects of the compounds of the present disclosure. In particular, the anesthetic effect of the compounds of the present disclosure on Loss of Righting Reflex (LRR) and Loss of Swimming Reflex (LSR).
# Methods used are known in the art (see Jiang, X., et al.). Error limits are calculated as standard error of the mean (N=10 or more animals at each of five or more different concentrations).
# [1] = tested on: picrotoxin binding site on GABAA receptors; test: [35S]-TBPS displacement (inhibition of [35S]-TBPS binding); details: Hill coefficient, ± SEM
# Procedure: The IC50 values for non-competitive displacers of [^35S]-TBPS from the picrotoxin binding site on GABAA receptors are reported in Table 1.
# Results presented are from duplicate experiments performed in triplicate. Error limits are calculated as standard error of the mean. Methods used are known in the art (see Jiang, X., et al., Neurosteroid analogues. 9. Conformationally constrained pregnanes: structure-activity studies of 13,24-cyclo-18,21-dinorcholane analogues of the GABA modulatory and anesthetic steroids (3α,5α)- and […]. J. Med. Chem., 46: 5334-48 (2003)—the contents of which are hereby incorporated by reference in their entirety).
Structure (SMILES),Tadpole LRR nHill (Tadpole),Tadpole LSR nHill (Tadpole),Inhibition of [35S]-TBPS Binding nHill [1]
C[C@]12C[C@H]3CC[C@@H]4C[C@@H](O)CC[C@H]4[C@@H]3C[C@@H]1CC/C2=C/C#N [MQ-31],−2.91 ± 1.16,−16.9 ± 0.7,1.02 ± 0.06
C[C@]12C[C@H]3CC[C@@H]4C[C@@H](O)CC[C@H]4[C@@H]3C[C@@H]1CC/C2=C\C#N [MQ-32],−4.97 ± 5.92,−21.1 ± 1.0,0.97 ± 0.05
C[C@]12C[C@H]3CC[C@@H]4C[C@@H](O)CC[C@H]4[C@@H]3C[C@@H]1CC[C@@H]2[N+](=O)[O-] [MQ-33],−2.65 ± 0.15,−33.3 ± 0.1,0.92 ± 0.07
C[C@]12C[C@H]3CCC4C[C@@H](O)CC[C@H]4[C@@H]3C[C@@H]1CCC2=O (stereo partly shown) [MQ-36],−1.57 ± 0.84,–,1.26 ± 0.09
C[C@]12C[C@H]3CC[C@@H]4C[C@@H](O)CCC4C3CC1CC[C@@]21CO1 (stereo partly shown) [MQ-37],−2.87 ± 0.06,−33.3 ± 0.1,1.29 ± 0.12
C[C@]12C[C@H]3CC[C@@H]4C[C@@H](O)CC[C@H]4[C@@H]3C[C@@H]1CC[C@@H]2C#N [MQ-38],−4.88 ± 3.39,−20.4 ± 0.5,1.06 ± 0.13
CC(=O)[C@H]1CCC2CC3C(CCC4C[C@H](O)CCC43)C[C@@]21C (stereo partly shown) [MQ-39],−19.3 ± 0.7,−16.1 ± 0.9,0.89 ± 0.08
C[C@@]12CC3CC[C@H]4C[C@H](O)CCC4C3CC1CCC2=O (stereo partly shown) [MQ-47],−4.87 ± 28.4,–,1.04 ± 0.29
C[C@]12CC(=O)CC1CC1C(CCC3C[C@H](O)CCC31)C2 (stereo partly shown) [MQ-48],−2.10 ± 0.42,−28.6 ± 0.0,0.60 ± 0.21
C[C@@]12CC3CCC4C[C@H](O)CCC4C3CC1CC[C@H]2C#N (stereo partly shown) [MQ-49],−1.71 ± 0.67,−33.3 ± 0.1,1.04 ± 0.14
CC(=O)[C@@H]1CC[C@@H]2C[C@H]3[C@@H](CC[C@H]4C[C@H](O)CC[C@@H]43)C[C@]21C [MQ-50],−1.30 ± 0.67,–,0.90 ± 0.15
C[C@@]12C[C@@H]3CC[C@@H]4C[C@H](O)CC[C@@H]4[C@H]3C[C@H]1CCC2=O [MQ-51],–,–,1.02 ± 0.13
C[C@@]12CC3CCC4C[C@H](O)CCC4C3CC1CC[C@]21CO1 (stereo partly shown) [MQ-54],−16.3 ± 5.3,−33.3 ± 0.1,5.28 ± 1.13
C[C@@]12CC[C@H](O)C[C@@H]1CC[C@@H]1C[C@]3(C)C(=O)CCC3C[C@H]12 (stereo partly shown) [MQ-83],−1.79 ± 0.47,−33.3 ± 0.1,1.08 ± 0.13
C[C@@]12CC[C@@H](O)C[C@@H]1CC[C@H]1C[C@@]3(C)[C@H](CC[C@@]34CO4)C[C@@H]12 [MQ-85],−2.60 ± 0.55,−33.3 ± 0.1,0.93 ± 0.16
C[C@@]12CC[C@H](O)C[C@H]1CC[C@@H]1C[C@]3(C)C(C#N)=CCC3CC12 (stereo partly shown) [MQ-86],−4.87 ± 2.93,−33.3 ± 0.1,0.89 ± 0.05
C[C@@]12CC[C@H](O)C[C@H]1CC[C@@H]1C[C@@]3(C)C(CC[C@@H]3C#N)CC12 (stereo partly shown) [MQ-87],−20.6 ± 0.6,−149 ± 0.5,0.79 ± 0.07
